Experimental data published in publication PMC5327418.
These are yes or no findings as the source states them, for the method shown. Binding seen in cells or lysates may run through a third protein. Here binding means that the protein was enriched with, or labelled near, the bait; the list need not be complete. Each block holds one binder with its values, some of them ahead of it.

Sequences of proteins named here, by UniProt entry; tags and fusion partners are left off.
UniProt P32569: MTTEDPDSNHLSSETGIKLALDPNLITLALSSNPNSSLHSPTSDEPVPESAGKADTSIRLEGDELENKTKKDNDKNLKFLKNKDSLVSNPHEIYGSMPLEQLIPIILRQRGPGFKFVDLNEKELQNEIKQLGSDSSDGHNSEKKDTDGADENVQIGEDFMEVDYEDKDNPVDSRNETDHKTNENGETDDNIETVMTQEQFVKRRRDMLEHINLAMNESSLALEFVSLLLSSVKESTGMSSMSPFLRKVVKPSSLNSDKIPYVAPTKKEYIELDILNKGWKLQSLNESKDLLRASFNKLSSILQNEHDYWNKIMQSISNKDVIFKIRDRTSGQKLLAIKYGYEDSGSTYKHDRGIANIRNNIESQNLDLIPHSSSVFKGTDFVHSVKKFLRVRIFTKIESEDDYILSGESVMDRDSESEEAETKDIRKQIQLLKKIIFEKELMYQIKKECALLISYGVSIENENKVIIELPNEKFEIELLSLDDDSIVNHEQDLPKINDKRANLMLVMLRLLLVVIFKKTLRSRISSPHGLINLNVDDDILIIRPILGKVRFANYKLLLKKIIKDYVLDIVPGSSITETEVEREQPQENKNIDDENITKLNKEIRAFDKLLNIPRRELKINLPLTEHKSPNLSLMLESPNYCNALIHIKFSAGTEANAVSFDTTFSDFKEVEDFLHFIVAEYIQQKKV

Target: Med17-HA (S. cerevisiae (endogenous in S288c)) (UniProt P32569)
Test: affinity purification with mass spectrometry; CoIP of Med17-HA on anti-HA magnetic beads from cryoground yeast lysate, 2 h at 4 °C; 20 mM HEPES pH 7.5, 300 mM KOAc, 10% glycerol, 0.01% NP-40, 6 mM MnSO4, 1 mM DTT, Cyanase nuclease; parallel control CoIP from 15N-labelled wild type cells, mixing after purification (MAP); GeLC-MS/MS, three biological replicates

B2: Sgf73 (protein, UniProt P53165 1-657)
chain: MRSGDAEIKGIKPKVIEEYSLSQGSGPSNDSWKSLMSSAKDTPLQYDHMNRESLKKYFNPNAQLIEDPLDKPIQYRVCEKCGKPLALTAIVDHLENHCAGASGKSSTDPRDESTRETIRNGVESTGRNNNDDDNSNDNNNDDDDDDDNDDNEDDDDADDDDDNSNGANYKKNDSSFNPLKRSTSMESANTPNMDTKRSKTGTPQTFSSSIKKQKKVKQRNPTEKHLIDFNKQCGVELPEGGYCARSLTCKSHSMGAKRAVSGRSKPYDVLLADYHREHQTKIGAAAEKRAKQQELQKLQKQIQKEQKKHTQQQKQGQRSKQRNVNGGKSAKNGGKSTVHNGNNINEIGHVNLTPEEETTQVLNGVSRSFPLPLESTVLSSVRYRTKYFRMREMFASSFSVKPGYTSPGYGAIHSRVGCLDLDRTTDYKFRVRTPQPINHLTNQNLNPKQIQRLQQQRALQAQLLSQQQQQQQQQQQHHSPQAQAQASTQQPTQGMVPNHFPGGATNSSFNANVSSKQIQQQQQQQQHKSQDTGLTPLEIQSQQQKLRQQQLQQQKFEAAASYLANATKLMQESNQDSHLSGTHNNNSSKNGNNNLMTMKASISSPNTSVNSIQSPPSVNSVNGSGQGVSTGINVSGNNGRIEVGIGNSVNPYNGRIN
binding: binds

B3: Sus1 (protein, UniProt Q6WNK7 1-96)
chain: MTMDTAQLKSQIQQYLVESGNYELISNELKARLLQEGWVDKVKDLTKSEMNINESTNFTQILSTVEPKALEMVSDSTRETVLKQIREFLEEIVDTQ
binding: binds

B4: Spt6 (protein, UniProt P23615 1-1451)
chain: MEETGDSKLVPRDEEEIVNDNDETKAPSEEEEGEDVFDSSEEDEDIDEDEDEARKVQEGFIVNDDDENEDPGTSISKKRRKHKRREREEDDRLSEDDLDLLMENAGVERTKASSSSGKFKRLKRVGDEGNAAESESDNVAASRQDSTSKLEDFFSEDEEEEESGLRNGRNNEYGRDEEDHENRNRTADKGGILDELDDFIEDDEFSDEDDETRQRRIQEKKLLREQSIKQPTQITGLSSDKIDEMYDIFGDGHDYDWALEIENEELENGNDNNEAEEEEIDEETGAIKSTKKKISLQDIYDLEDLKKNLMTEGDMKIRKTDIPERYQELRAGITDYGNMSSEDQELERNWIAEKISVDKNFDANYDLTEFKEAIGNAIKFITKENLEVPFIYAYRRNYISSREKDGFLLTEDDLWDIVSLDIEFHSLVNKKDYVQRFYAELHIDDPIVTEYFKNQNTASIAELNSLQDIYDYLEFKYANEINEMFINHTGKTGKKHLKNSSYEKFKASPLYQAVSDIGISAEDVGENISSQHQIHPPVDHPSSKPVEVIESILNANSGDLQVFTSNTKLAIDTVQKYYSLELSKNTKIREKVRSDFSKYYLADVVLTAKGKKEIQKGSLYEDIKYAINRTPMHFRRDPDVFLKMVEAESLNLLSVKLHMSSQAQYIEHLFQIALETTNTSDIAIEWNNFRKLAFNQAMDKIFQDISQEVKDNLTKNCQKLVAKTVRHKFMTKLDQAPFIPNVRDPKIPKILSLTCGQGRFGADAIIAVYVNRKGDFIRDYKIVDNPFDKTNPEKFEDTLDNIIQSCQPNAIGINGPNPKTQKFYKRLQEVLHKKQIVDSRGHTIPIIYVEDEVAIRYQNSERAAQEFPNKPPLVKYCIALARYMHSPLLEYANLTSEEVRSLSIHPHQNLLSSEQLSWALETAFVDIVNLVSVEVNKATDNNYYASALKYISGFGKRKAIDFLQSLQRLNEPLLARQQLITHNILHKTIFMNSAGFLYISWNEKRQKYEDLEHDQLDSTRIHPEDYHLATKVAADALEYDPDTIAEKEEQGTMSEFIELLREDPDRRAKLESLNLESYAEELEKNTGLRKLNNLNTIVLELLDGFEELRNDFHPLQGDEIFQSLTGESEKTFFKGSIIPVRVERFWHNDIICTTNSEVECVVNAQRHAGAQLRRPANEIYEIGKTYPAKVIYIDYANITAEVSLLDHDVKQQYVPISYSKDPSIWDLKQELEDAEEERKLMMAEARAKRTHRVINHPYYFPFNGRQAEDYLRSKERGEFVIRQSSRGDDHLVITWKLDKDLFQHIDIQELEKENPLALGKVLIVDNQKYNDLDQIIVEYLQNKVRLLNEMTSSEKFKSGTKKDVVKFIEDYSRVNPNKSVYYFSLNHDNPGWFYLMFKINANSKLYTWNVKLTNTGYFLVNYNYPSVIQLCNGFKTLLKSNSSKNRMNNYR
binding: binds

B5: Rtr1 (protein, UniProt P40084 1-226)
chain: MATIEDIKETALIPFQKHRQLSMHEAEVITLEIIGLLCDSECKDEKTLKYLGRFLTPDMYQDLVDERNLNKRCGYPLCGKSPERIRDPFSMNDTTKKFLLENNPYAYLSHYCSKFHFRCSQFYQVQLSDEALFARTGVHLFEDPEQDKHDIDFKVTLFEELLREKASEEDIKSLISGLKKLGLNPDSGTTEKDDTELEDDLSKWLAQIKIVENDNPSILGDFTRED
binding: binds

B8: Cbp2 (protein, UniProt P03874 1-630)
chain: MVNWQTLFMVSLRRQGSSSRYRYKFNMENITHQVFPRCKQAFKKTNLSYEYCDLEGVLYNISLTDLQKLLLRDINAPREHAFKIVRTDLTQKSSKKRIQHWERIAPMFDHPLSLYEKLFSEMDEDFKPSFEWQQLIRVRCKDDKLKLQRVIWPKSIFSNFCRGIGVKKSTYDRLLEQNNGEVPMFVNPANAKPLPLFQVSDEAMIGEFDGIGIFPYFVDKHREFFVTEVDKLKTKIASPLCTLNERKRIEKANAGRILANEEGKPFYLDANSATTRIAGGNVVTLKQLLERSVSHKTLWSKQSNKDRTCPGDILRATILSNDFSIRQLRAEFCKNFILYNIFTILQRNKKSIRSFSGNDNAPSFQFSWNVWDSYIWKQYQETESMKIPTDQASLINYKTKYDSFLHDLQTYSALVISEMKWNQFSIFQNDETTLSRFEHITLILQTVLTKSKMIRIFQPNLYKFMQDDLRPTLMELVGFTESINATIEPGFANEQSLQSANGLKKLANQLLYFEQEIYGEKFRVNRPIQLRPITLSANYKIVILDKKNAIPEIFQTLLKFMTQITTYFVKDLSEVELHGHMHCIDKKMLDKSKFMYLYEEKSNEEVKAASPQKEKIVDNIIGLLSNDEEH
binding: binds

The remaining lines, values ahead:

binding: binds
B1: Ubp8 (protein, UniProt P50102 1-471)
chain: MSICPHIQQVFQNEKSKDGVLKTCNAARYILNHSVPKEKFLNTMKCGTCHEINSGATFMCLQCGFCGCWNHSHFLSHSKQIGHIFGINSNNGLLFCFKCEDYIGNIDLINDAILAKYWDDVCTKTMVPSMERRDGLSGLINMGSTCFMSSILQCLIHNPYFIRHSMSQIHSNNCKVRSPDKCFSCALDKIVHELYGALNTKQASSSSTSTNRQTGFIYLLTCAWKINQNLAGYSQQDAHEFWQFIINQIHQSYVLDLPNAKEVSRANNKQCECIVHTVFEGSLESSIVCPGCQNNSKTTIDPFLDLSLDIKDKKKLYECLDSFHKKEQLKDFNYHCGECNSTQDAIKQLGIHKLPSVLVLQLKRFEHLLNGSNRKLDDFIEFPTYLNMKNYCSTKEKDKHSENGKVPDIIYELIGIVSHKGTVNEGHYIAFCKISGGQWFKFNDSMVSSISQEEVLKEQAYLLFYTIRQVN

binding: binds
B6: Sgf11 (protein, UniProt Q03067 1-99)
chain: MTEETITIDSISNGILNNLLTTLIQDIVARETTQQQLLKTRYPDLRSYYFDPNGSLDINGLQKQQESSQYIHCENCGRDVSANRLAAHLQRCLSRGARR

binding: binds
B7: Sub1 (protein, UniProt P54000 1-292)
chain: MSYYNRYRNKRRSDNGGGNLSNSNNNNGGMPSGLSASDAIFDLGKNKRVTVRQFRNINLIDIREYYLDSSTGEMKPGKKGISLTEDLYDELLKHRLNIDEALRRLGSKRPKTKMVRLLSDDEYEDDNNNDSTNNDKDKNGKDKNSPKKRREDKSKASNESHDLEPRSKKKKPAPPTLLPHEENIQNAEREANATLIIPGQAGRKQQEERKQKEKEEAEEAKAKAVAEQEKEAKAKEKIAEPEPEPVPTLQAKKEDIVSNINESKDANSSDEEFAQSLEAEMNKAEDDISEEE
